Out of some 390,000 compounds screened, about 610 (0.16%) were called active. Inconclusive means that the source gave no clear call. Such entries were picked first, then a sample of the others. Calls follow the shape of the dose curve; as a rule, active = well fitted inhibition curve with a large enough effect; inconclusive = small, poorly fitted or top-dose-only effect, or effect the other way, or another doubt; inactive = no such curve, though single readings can be large or run the other way. Where the call is inconclusive, the potency comes from a doubtful curve fit.
Test: Nrf2 qHTS screen for inhibitors: counterscreen for cytotoxicity
Conditions: A549 ARE-Fluc cells, CellTiter-Fluor viability, 18-24 h; activity change, negative = cytotoxicity: at 46 µM (top of the series)
Outline: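 A549 ARE_Fluc cells in 5% FBS OPTI-MEM were exposed to compounds in concentration-response for 18-24 h at 37 deg C. Viability was read by CellTiter-Fluor fluorescence (Ex 405/Em 525) after 30 min, before the luciferase read.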
For `CCN(CC)S(=O)(=O)c1ccc(OC)c(NC(=O)c2sc3ccccc3c2Cl)c1`, the “activity change, negative = cytotoxicity” value was inactive: -3.61%.
With `CCOC(=O)N1CCc2c(sc3c2c(=O)n(Cc2ccccc2)c(=O)n3CC(=O)Nc2ccc(F)cc2)C1` the “activity change, negative = cytotoxicity” value was inactive: -2.53%.
In the case of `CC1(C)CC[C@]2(C(=O)O)CC[C@]3(C)C(=CC[C@@H]4[C@@]5(C)CC[C@H](O[C@@H]6O[C@H](C(=O)O)[C@@H](O)[C@H](O[C@@H]7OC[C@H](O)[C@H](O)[C@H]7O)[C@H]6O)C(C)(C)[C@@H]5CC[C@]43C)[C@@H]2C1`, the Potency is reported as inconclusive: 23.1 µM [falling, single point].
For `O=C(CCCN1C(=O)/C(=C/c2cccc(Br)c2)SC1=S)Nc1ccccn1`, the Potency was inconclusive: 29.1 µM [falling, single point].
In the case of `Cc1nc(NC(C)c2ccccc2)c2c3c(sc2n1)CCC3` (stereo not given), the Potency is reported as inconclusive: 29.1 µM [falling, single point].
With `COc1cccc(-c2csc3ncnc(Sc4nnnn4C)c23)c1` the Potency was inconclusive: 25.9 µM [falling, single point].
In the case of `COc1cc(N=Cc2c(O)[nH]c3ccccc23)cc(OC)c1OC`, the Potency is reported as inconclusive: 9.2 µM [falling, partial curve].
In the case of `COc1cc(C(=O)OCC(C)=O)cc(NC(=O)c2ccco2)c1OC`, the “activity change, negative = cytotoxicity” value is reported as inactive: -1.2%.
In the case of `O=[N+]([O-])c1cc(Cl)cc(/C=N/NC(=S)Nc2cc(S(=O)(=O)N3CCOCC3)ccc2Cl)c1O`, the Potency is reported as inconclusive: 23.1 µM [falling, single point].
In the case of `CC(Oc1cccc(Cl)c1)C(=O)Nc1nc(-c2ccccn2)cs1` (stereo not given), the Potency is reported as inconclusive: 2.06 µM [falling, full curve].
For `Cc1nc2ccccc2c2oc(C(=O)Nc3ccc4c(c3)OCCO4)cc12`, the “activity change, negative = cytotoxicity” value was inactive: -28.6%.
For `COc1ccc(-c2nn(-c3ccccc3)cc2/C=N/n2cnnc2)cc1OC`, the “activity change, negative = cytotoxicity” value was inactive: 1.68%.
For `C/C(=N\Nc1ccc([N+](=O)[O-])cc1)c1ccc(-n2nncc2C)cc1`, the Potency was inconclusive: 18.4 µM [falling, partial curve, poor fit].
With `Cc1c(C(=O)N(Cc2ccc(Cl)cc2)C2CCS(=O)(=O)C2)oc2ccccc12` (stereo not given) the Potency was inconclusive: 25.9 µM [falling, single point].
In the case of `O=C(NCCc1nc2ccccc2n1Cc1ccccc1F)c1ccc(F)cc1`, the Potency is reported as inconclusive: 18.4 µM [falling, single point].
With `CCSC1=N/C(=C\C=C2/Oc3ccccc3N2CC)C(=O)S1` the Potency was inconclusive: 25.9 µM [falling, partial curve, poor fit].
For `c1csc(-c2nc(N3CCN(Cc4ccc5c(c4)OCCO5)CC3)c3ccccc3n2)c1`, the “activity change, negative = cytotoxicity” value was inactive: 2.86%.
In the case of `Cc1[nH]c2ccc(OC(=O)N3CCOCC3)cc2c1C(=O)OC(C)C`, the “activity change, negative = cytotoxicity” value is reported as inactive: 0.474%.
With `CCCOc1ccc2c(=O)c(-c3cc(C(=O)OC)oc3C)c(C)oc2c1` the “activity change, negative = cytotoxicity” value was inactive: -5.58%.
With `COc1cccc(-c2nc(CS(=O)(=O)CC(=O)N3CCN(c4ccccc4)CC3)c(C)o2)c1` the “activity change, negative = cytotoxicity” value was inactive: -14.6%.
With `Cc1c(Cl)cccc1NC(=O)C(=O)NCCc1csc2nc(-c3ccccc3F)nn12` the Potency was inconclusive: 29.1 µM [falling, single point].
In the case of `CCN(CC)c1ccc(/C=c2\sc3nc4ccccc4n3c2=O)c(O)c1`, the Potency is reported as inconclusive: 8.2 µM [activator, partial curve].
In the case of `Fc1cccc(Nc2nc(N3CCOCC3)nc(N3CCOCC3)n2)c1`, the Potency is reported as inconclusive: 0.326 µM [activator, full curve].
For `O=C1CC(O)(C(F)(F)F)Oc2c1ccc1ccccc21` (stereo not given), the Potency was inconclusive: 18.4 µM [falling, partial curve, poor fit].
For `CCn1c(SCC(=O)N2CCCCC2)nc2c(c1=O)SC(C)C2` (stereo not given), the Potency was inconclusive: 7.31 µM [falling, partial curve].
For `Cc1cc(N2C3CCC2CC(O)(c2ccc(F)cc2)C3)nc(-c2ccccc2)n1` (stereo not given), the Potency was inconclusive: 23.1 µM [falling, single point].
For `Cc1ccc(C)c(NC(=O)c2cc(S(=O)(=O)NCc3ccccc3)ccc2F)c1`, the Potency was inconclusive: 18.4 µM [activator, single point].
In the case of `O=C(C1=C(O)C(=O)N(CCN2CCOCC2)C1c1ccc(F)cc1)c1cccs1` (stereo not given), the Potency is reported as inconclusive: 32.6 µM [falling, partial curve, poor fit].
For `CCOC(=O)C(C)Oc1ccc(NC(=O)C(Cl)(Cl)Cl)cc1` (stereo not given), the “activity change, negative = cytotoxicity” value was inactive: 2.67%.
With `Cn1c(=NC(=O)C2=NNC(=O)CC2)sc2ccccc21` the Potency was inconclusive: 23.1 µM [falling, single point].
With `C/C(CCC(=O)O)=N/Nc1ccc([N+](=O)[O-])cc1[N+](=O)[O-]` the Potency was inconclusive: 20.6 µM [falling, partial curve, poor fit].
For `CCN1CCN(c2ccc(NC(=O)c3ccc4c(c3)[nH]c(=O)n4Cc3ccc(F)cc3)cc2)CC1`, the Potency was inconclusive: 32.6 µM [falling, partial curve, poor fit].
With `C=CCn1c(O)c(N=NC(=S)Nc2ccc(OC)cc2)c2ccccc21` the Potency was inconclusive: 16.4 µM [falling, single point].
In the case of `CCCCNc1c(-c2cccc(-c3ccc(OC)cc3)c2)nc2ccc(C)cn12`, the Potency is reported as inconclusive: 16.4 µM [falling, single point].
For `O=C(NC(=S)NNC(=O)c1ccc(Cl)cc1Cl)c1cccnc1`, the “activity change, negative = cytotoxicity” value was inactive: -0.0237%.
In the case of `Nc1cc(N2CCCC2)ccc1[N+](=O)[O-]`, the Potency is reported as inconclusive: 20.6 µM [falling, partial curve].
In the case of `Cc1ccc(S(=O)(=O)N2CCOCC2)cc1NC(=O)COC(=O)c1n[nH]c(=O)c2ccccc12`, the Potency is reported as inconclusive: 5.17 µM [falling, partial curve].
With `CN(C)CCCN=c1cc(-c2ccccc2)oc2ccc(Cl)cc12` the “activity change, negative = cytotoxicity” value was inactive: 10.6%.
With `Cc1cccc(N/C(N)=N/c2nc(C)c(Cc3ccccc3)c(=O)[nH]2)c1` the “activity change, negative = cytotoxicity” value was inactive: -22.4%.
With `Cc1nn(-c2ccccc2)c2c1N(CC(=O)N1CCN(c3ccc(Cl)cc3)CC1)C(=O)CS2` the “activity change, negative = cytotoxicity” value was inactive: -6.94%.
In the case of `COc1ccccc1CCC(=O)N1CCC(n2nccc2NC(=O)C2CCOC2)CC1` (stereo not given), the “activity change, negative = cytotoxicity” value is reported as inactive: 1.49%.
For `CC(C)(C)c1nc(SCC(=O)Nc2nc3c(s2)CCCC3)c2ccccc2n1`, the Potency was inconclusive: 14.6 µM [falling, partial curve].
In the case of `CCc1ccc(NC(=O)c2cc(S(=O)(=O)NC3CCCCCC3)ccc2F)cc1`, the Potency is reported as inconclusive: 29.1 µM [falling, partial curve, poor fit].
For `CCCC[n+]1ccn(-c2nc3ccccc3nc2[N-]S(=O)(=O)c2ccccc2)c1`, the Potency was inconclusive: 3.66 µM [activator, single point].
In the case of `COc1cc(/C=C/c2ccc3cccc(O)c3n2)cc(OC)c1OC`, the “activity change, negative = cytotoxicity” value is reported as inactive: -3.27%.
With `O=C1CSC2(C(=O)N(Cc3cccc(C(F)(F)F)c3)c3ccccc32)N1c1ccc(F)c(F)c1` (stereo not given) the Potency was inconclusive: 29.1 µM [falling, single point].
For `COC(=O)C1=C[C@@H](C(=O)OC)[C@@H]2C3=C(C(=O)C2(C)C)[C@H](C)n2c(=O)n(-c4ccccc4)c(=O)n2[C@@H]3C1`, the Potency was “inactive”.
For `COc1c(Br)cc(Br)cc1/C=N/NC(=O)c1ccncc1`, the “activity change, negative = cytotoxicity” value was inactive: -1.86%.
For `CCc1ccccc1NC(=O)CN(C)C(=O)CSc1nnc(Nc2cccc(C)c2C)s1`, the “activity change, negative = cytotoxicity” value was inactive: 0.0987%.
In the case of `COc1ccc(NC(=S)Nc2cccc3ccccc23)cc1OC`, the “activity change, negative = cytotoxicity” value is reported as inactive: 10.3%.
In the case of `NS(=O)(=O)c1ccc(N/N=C/c2ccc(O)cc2O)c([N+](=O)[O-])c1`, the Potency is reported as inconclusive: 18.4 µM [falling, single point].
With `COc1ccc(CC(C(=O)Nc2ccc(OC)cc2)c2nn[nH]n2)cc1` (stereo not given) the “activity change, negative = cytotoxicity” value was inactive: -4.87%.
In the case of `O=[N+]([O-])C(=C1Nc2ccccc2N1)/C(Cl)=C(/Cl)Br`, the Potency is reported as inconclusive: 32.6 µM [activator, single point].
In the case of `COc1ccc(N2CCN(C(=O)CSc3ncccc3-c3nc4ccccc4[nH]3)CC2)cc1`, the activity change, negative = cytotoxicity is reported as inconclusive: -61.9% [activator].
With `CC(C)(C)OC(=O)NCC12C=CC(O1)C1C(=O)N(Cc3ccccc3)C(=O)C12` (stereo not given) the “activity change, negative = cytotoxicity” value was inactive: -6.37%.
With `COc1ccc(OC)c(NC(=O)c2nc(S(=O)(=O)Cc3ccc(F)cc3)ncc2Cl)c1` the Potency was inconclusive: 20.6 µM [falling, single point].
With `O=C(NCCc1ccc(C(F)(F)F)cc1)C1CC(=O)N(Cc2ccccc2)C1` (stereo not given) the “activity change, negative = cytotoxicity” value was inactive: 2.22%.
With `COc1cc(S(=O)(=O)N(Cc2ccco2)C2CCCC2)ccc1-n1cnnn1` the Potency was inconclusive: 3.26 µM [falling, partial curve, poor fit].
With `CN(C)C(=O)CCc1ccc2c3c([nH]c2c1)[C@]1(CCC2CCCC2)[C@@H](C(=O)N2CCOCC2)C[C@H](CC(=O)NCC24CC5CC(CC(C5)C2)C4)C(=O)N1CC3` the Potency was inconclusive: 29.1 µM [falling, single point].
In the case of `CC(C)c1cc(-c2cc(-c3ccc(Cl)cc3)on2)nc(NCC2CC2)n1`, the Potency is reported as inconclusive: 29.1 µM [activator, partial curve, poor fit].
For `CCOc1cccc(NCc2cc3c(C(C)(C)C)nn(-c4ccccc4)c3[nH]c2=O)c1`, the Potency was inconclusive: 18.4 µM [falling, partial curve, poor fit].
In the case of `c1ccc(SCc2nc(-c3cccnc3)no2)cc1`, the Potency is reported as inconclusive: 23.1 µM [activator, partial curve, poor fit].
With `COc1ccc(/C=N/NC(=O)c2cccc(Br)c2)cc1Cn1cc(Cl)cn1` the Potency was inconclusive: 20.6 µM [falling, partial curve, poor fit].
In the case of `CC1=C(C#N)C(c2ccccc2)C2=C(N1)c1ccccc1C2=O` (stereo not given), the Potency is reported as inconclusive: 18.4 µM [falling, single point].
For `CCN(c1ccc(OC)cc1)S(=O)(=O)c1ccc2[nH]c3c(c2c1)CCCCC3`, the Potency was inconclusive: 18.4 µM [falling, partial curve, poor fit].

Source: PubChem BioAssay AID504648 (National Center for Advancing Translational Sciences (NCATS), 2011)
% is scaled to controls: 0 for no effect and ±100 for the full control effect; potency is read from the fitted curve at half-maximal effect.
